# Assay results: patent US20200247841 (published 2020)
# Assay: general procedure: Fmoc solid-phase peptide synthesis; 2-chlorotrityl chloride (CTC) resin, substitution 1.22 mmol/g; HBTU/HOBt/DIPEA, with catalytic Copper(II) chloride/Magnesium chloride
# Settings: whole synthesis
substance,measurement,setting,value
Icatibant,crude purity (method not given),scale 35 mmol,76.8%
same,crude yield,scale 35 mmol,68%
same,crude purity (method not given),"scale of the general procedure 10 g resin, run 1",68.69%
same,crude purity (method not given),"scale of the general procedure 10 g resin, run 2",67.08%
same,crude purity (method not given),"scale of the general procedure 10 g resin, run 3",72.38%
same,crude purity (method not given),"scale of the general procedure 10 g resin, run 4",around 77.92%
same,crude purity (method not given),"scale of the general procedure 10 g resin, run 5",64.97%
same,crude purity (method not given),"scale of the general procedure 10 g resin, run 6",74.54%
